Measured values taken from the supplement of paper PMC10849652.
This is one part of the list.

By UniProt entry, the sequences of proteins in these tests, tags left out. Where a name states a change or a piece, a line headed by the entry shows the natural chain unless it says otherwise.
UniProt Q9NX40: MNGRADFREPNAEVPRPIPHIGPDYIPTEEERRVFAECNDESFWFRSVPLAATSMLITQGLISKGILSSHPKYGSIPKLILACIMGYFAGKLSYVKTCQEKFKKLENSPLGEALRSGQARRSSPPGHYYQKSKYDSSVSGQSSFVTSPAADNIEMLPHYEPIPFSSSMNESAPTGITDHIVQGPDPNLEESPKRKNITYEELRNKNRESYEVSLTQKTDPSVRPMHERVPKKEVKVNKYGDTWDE
UniProt Q8NFH5: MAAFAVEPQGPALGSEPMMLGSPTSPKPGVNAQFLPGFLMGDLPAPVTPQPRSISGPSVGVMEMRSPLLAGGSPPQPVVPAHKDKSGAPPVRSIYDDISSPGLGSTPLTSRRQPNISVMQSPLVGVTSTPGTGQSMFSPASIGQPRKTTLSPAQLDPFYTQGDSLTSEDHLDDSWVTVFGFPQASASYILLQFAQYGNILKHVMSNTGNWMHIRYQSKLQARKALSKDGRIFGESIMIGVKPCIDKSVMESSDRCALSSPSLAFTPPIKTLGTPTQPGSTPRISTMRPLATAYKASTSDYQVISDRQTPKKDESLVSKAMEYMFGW
UniProt Q86U42: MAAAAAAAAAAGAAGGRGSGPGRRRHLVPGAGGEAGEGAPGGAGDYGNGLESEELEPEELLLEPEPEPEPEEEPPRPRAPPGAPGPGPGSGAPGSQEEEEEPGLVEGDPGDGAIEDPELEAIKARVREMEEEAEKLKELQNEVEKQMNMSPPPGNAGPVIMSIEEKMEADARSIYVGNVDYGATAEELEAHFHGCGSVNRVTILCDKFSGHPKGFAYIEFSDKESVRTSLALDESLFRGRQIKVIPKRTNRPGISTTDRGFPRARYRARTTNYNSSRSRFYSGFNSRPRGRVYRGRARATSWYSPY
UniProt O14841: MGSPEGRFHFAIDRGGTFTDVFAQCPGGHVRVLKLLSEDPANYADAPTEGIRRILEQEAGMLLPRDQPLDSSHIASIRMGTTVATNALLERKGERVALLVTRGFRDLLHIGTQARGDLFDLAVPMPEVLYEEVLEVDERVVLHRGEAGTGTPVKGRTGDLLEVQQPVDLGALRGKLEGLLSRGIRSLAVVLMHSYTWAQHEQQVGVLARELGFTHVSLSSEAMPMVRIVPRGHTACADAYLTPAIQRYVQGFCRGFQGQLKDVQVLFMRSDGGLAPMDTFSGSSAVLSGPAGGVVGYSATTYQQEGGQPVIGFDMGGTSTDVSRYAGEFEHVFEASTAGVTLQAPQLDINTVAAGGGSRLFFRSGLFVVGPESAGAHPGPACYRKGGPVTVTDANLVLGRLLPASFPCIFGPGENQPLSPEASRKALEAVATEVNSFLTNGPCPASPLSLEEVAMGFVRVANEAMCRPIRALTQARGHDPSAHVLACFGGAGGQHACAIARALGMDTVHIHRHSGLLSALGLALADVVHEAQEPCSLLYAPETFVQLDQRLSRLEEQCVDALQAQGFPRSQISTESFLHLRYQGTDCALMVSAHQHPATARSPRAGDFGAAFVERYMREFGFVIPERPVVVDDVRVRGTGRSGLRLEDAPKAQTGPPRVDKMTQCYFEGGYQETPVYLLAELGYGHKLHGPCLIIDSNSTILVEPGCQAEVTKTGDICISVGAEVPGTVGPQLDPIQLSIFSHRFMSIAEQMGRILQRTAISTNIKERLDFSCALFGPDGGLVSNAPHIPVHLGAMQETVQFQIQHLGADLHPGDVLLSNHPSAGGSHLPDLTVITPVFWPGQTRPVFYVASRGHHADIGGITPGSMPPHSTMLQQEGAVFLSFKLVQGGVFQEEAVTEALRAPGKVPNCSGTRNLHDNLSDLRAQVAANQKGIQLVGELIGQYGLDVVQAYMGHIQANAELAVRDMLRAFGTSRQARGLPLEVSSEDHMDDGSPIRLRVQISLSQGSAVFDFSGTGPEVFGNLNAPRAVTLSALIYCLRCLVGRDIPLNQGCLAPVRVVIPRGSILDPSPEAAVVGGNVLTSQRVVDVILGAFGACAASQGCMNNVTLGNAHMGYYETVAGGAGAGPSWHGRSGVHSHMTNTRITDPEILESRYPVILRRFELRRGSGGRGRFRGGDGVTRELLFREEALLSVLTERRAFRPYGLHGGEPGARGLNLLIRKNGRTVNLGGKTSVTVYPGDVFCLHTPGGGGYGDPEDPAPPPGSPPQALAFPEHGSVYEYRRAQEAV
UniProt P22059, whole entry, looked up: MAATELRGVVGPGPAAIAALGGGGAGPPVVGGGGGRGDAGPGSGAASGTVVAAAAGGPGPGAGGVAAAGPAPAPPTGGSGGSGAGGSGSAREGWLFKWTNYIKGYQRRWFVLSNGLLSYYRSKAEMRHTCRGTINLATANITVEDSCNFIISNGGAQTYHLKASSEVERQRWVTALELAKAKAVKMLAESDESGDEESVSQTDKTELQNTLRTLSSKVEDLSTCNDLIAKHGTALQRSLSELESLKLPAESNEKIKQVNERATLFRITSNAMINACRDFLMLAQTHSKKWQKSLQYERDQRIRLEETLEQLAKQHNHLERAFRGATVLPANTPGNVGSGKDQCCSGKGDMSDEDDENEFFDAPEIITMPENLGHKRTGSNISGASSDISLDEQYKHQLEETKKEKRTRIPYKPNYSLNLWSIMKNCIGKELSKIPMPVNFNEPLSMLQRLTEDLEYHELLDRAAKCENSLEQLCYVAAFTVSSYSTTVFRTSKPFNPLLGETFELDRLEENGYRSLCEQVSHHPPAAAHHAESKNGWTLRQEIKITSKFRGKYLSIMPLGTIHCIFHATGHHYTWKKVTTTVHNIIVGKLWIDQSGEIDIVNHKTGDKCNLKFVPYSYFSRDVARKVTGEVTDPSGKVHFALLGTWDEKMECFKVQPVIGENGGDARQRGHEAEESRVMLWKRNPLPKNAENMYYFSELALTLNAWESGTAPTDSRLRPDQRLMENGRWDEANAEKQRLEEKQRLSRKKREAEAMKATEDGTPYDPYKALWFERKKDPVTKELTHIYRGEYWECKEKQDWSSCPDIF
UniProt Q9BZ23: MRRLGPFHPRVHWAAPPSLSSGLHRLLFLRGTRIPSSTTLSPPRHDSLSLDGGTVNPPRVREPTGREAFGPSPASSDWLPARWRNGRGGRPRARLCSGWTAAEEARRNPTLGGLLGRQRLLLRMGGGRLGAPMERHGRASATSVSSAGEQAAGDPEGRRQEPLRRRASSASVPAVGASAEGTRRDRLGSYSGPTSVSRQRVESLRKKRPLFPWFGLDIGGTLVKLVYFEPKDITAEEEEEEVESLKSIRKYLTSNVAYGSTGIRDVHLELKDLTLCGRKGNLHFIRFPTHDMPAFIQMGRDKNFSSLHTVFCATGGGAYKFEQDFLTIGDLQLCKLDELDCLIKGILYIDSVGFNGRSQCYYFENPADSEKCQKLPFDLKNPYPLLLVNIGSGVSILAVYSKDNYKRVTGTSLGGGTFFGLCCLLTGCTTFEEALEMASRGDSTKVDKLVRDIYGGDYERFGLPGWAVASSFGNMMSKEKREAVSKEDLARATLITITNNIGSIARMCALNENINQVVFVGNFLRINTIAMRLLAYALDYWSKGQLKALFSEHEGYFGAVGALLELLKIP
UniProt Q9H999: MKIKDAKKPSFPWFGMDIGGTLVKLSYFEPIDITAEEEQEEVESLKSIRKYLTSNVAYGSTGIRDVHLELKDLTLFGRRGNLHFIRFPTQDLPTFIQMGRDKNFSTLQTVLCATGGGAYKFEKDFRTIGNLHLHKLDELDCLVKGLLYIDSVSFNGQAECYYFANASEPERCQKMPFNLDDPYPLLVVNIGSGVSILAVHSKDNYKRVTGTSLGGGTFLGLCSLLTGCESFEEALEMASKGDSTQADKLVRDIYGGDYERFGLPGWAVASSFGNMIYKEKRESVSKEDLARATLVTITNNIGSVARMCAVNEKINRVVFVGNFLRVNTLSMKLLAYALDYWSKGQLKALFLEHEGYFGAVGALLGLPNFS
UniProt O15381: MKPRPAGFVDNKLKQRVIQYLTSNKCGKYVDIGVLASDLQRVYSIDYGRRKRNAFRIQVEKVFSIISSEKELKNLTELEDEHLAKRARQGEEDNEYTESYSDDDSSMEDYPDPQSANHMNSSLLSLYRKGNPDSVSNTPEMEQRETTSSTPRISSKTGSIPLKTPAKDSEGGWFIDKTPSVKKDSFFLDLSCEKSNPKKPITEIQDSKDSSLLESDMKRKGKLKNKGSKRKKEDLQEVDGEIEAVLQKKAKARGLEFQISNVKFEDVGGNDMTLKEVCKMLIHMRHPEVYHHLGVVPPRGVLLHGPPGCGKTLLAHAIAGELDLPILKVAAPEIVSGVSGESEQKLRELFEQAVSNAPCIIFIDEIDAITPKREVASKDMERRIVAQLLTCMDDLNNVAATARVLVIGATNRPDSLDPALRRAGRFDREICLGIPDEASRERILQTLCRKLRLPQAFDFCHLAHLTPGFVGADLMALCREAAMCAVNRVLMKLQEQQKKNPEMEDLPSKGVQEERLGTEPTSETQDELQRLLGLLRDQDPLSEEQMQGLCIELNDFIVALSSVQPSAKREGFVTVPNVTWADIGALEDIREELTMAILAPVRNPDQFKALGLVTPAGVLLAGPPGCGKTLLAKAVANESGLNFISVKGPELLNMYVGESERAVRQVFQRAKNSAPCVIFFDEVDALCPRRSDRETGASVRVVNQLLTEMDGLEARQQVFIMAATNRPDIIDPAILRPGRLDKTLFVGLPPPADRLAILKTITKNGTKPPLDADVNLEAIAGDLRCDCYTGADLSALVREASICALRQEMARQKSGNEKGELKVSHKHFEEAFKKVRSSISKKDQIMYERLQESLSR
UniProt Q96D31, whole entry, looked up: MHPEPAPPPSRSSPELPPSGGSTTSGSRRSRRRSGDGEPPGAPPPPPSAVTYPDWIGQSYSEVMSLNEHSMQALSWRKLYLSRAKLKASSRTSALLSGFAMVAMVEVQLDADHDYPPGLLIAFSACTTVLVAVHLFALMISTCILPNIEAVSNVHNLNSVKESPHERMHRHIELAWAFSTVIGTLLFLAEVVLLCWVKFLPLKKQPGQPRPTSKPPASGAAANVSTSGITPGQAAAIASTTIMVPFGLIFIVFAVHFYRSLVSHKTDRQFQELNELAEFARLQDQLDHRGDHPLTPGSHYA
UniProt Q9UBD5: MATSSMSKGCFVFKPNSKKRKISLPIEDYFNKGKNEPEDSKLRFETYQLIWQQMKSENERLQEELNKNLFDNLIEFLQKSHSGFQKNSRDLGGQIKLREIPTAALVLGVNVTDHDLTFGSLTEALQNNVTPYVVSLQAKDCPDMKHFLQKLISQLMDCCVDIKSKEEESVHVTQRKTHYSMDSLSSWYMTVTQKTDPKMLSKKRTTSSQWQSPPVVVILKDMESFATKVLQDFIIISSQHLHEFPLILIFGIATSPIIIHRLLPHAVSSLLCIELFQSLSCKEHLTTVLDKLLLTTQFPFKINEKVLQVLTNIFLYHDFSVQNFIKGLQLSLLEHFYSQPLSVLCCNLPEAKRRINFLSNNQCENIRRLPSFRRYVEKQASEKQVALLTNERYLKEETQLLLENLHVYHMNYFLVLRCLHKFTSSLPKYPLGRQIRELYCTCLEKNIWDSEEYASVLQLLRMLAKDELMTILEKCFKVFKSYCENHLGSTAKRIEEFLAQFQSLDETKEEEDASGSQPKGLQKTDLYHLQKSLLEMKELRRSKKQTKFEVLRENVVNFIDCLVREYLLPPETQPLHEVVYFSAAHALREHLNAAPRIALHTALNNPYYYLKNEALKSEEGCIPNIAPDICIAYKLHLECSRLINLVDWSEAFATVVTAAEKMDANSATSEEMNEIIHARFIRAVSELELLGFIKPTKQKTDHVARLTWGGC
UniProt O60890: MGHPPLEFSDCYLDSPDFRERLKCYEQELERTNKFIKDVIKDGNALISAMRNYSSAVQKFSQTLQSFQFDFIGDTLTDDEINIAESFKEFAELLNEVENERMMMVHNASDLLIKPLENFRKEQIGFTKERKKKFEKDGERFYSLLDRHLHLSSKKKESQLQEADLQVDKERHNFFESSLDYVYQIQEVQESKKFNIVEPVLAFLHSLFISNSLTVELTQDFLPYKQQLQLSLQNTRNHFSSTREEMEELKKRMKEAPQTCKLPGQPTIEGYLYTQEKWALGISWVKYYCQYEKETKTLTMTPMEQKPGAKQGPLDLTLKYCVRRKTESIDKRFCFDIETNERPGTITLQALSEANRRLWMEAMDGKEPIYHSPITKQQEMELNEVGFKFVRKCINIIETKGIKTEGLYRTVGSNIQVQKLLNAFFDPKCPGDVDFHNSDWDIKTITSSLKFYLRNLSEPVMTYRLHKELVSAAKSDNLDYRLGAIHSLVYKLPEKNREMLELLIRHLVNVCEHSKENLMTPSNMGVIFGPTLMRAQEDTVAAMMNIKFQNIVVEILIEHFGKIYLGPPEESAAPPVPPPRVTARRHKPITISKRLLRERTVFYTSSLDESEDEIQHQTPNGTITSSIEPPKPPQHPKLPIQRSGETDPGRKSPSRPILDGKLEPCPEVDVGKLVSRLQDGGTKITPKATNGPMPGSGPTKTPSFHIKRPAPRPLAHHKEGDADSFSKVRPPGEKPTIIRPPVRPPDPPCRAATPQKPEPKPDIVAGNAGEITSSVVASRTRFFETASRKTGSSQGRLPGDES

Key:
Assay in all cases: log2 fold change, soluble protein after heating vs DMSO (PISA); higher = thermal stabilisation; K562 lysate, 10 uM; active = over 0.2 and 3.5 SD of the protein, either way, in both replicates (recomputed)
[1] = compound: C=CC(=O)N1CCC[C@@H](n2nc(-c3ccc(Oc4ccccc4)cc3)c3c(N)ncnc32)C1 [ibrutinib]
Method in brief: (§1)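 K562 pellets were dounce-homogenised in PBS pH 7.4 with 1 mM MgCl2, and the crude extract at 1 mg/mL protein was treated with 10 μM compound for 30 min. Aliquots were heated for 3 min across 48°C-58°C, pooled, and brought to 0.5% NP-40 at 4°C; soluble protein was the supernatant after 21,000xg for 90 min. Soluble protein was quantified by TMTpro 16plex LC-MS/MS with channel sums equalised, and reported as log2 fold change in thermal stability against DMSO controls, with values from duplicates.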

[2] = compound: CC(=O)c1cnc2ccc(-c3cc(Cl)c(O)c(Cl)c3)nc2c1N[C@H]1CC[C@H](CN(C)C)CC1
Method in brief: as §1

[3] = compound: CC(C)C1=C2N=C(C=C(N2N=C1)NCC3=CC=CC=C3)NCCCCCCN
Method in brief: as §1

[4] = compound: CC1=C(C(CC(=O)N1)C2=CC=C(C=C2)C(F)(F)F)C(=O)NC3=C(C=C4C(=C3)C=NN4)F
Method in brief: as §1

[5] = compound: CC1=C(C2=C(C=C1)C(=O)C3=CC=CC=C3N2CCCN)C
Method in brief: as §1

[6] = compound: CC1=C(C=C(C=C1)NC(=O)C2=CC(=CC=C2)C(C)(C)C#N)NC3=CC4=C(C=C3)N=CN(C4=O)C
Method in brief: as §1

[7] = compound: CC1=CC=C(C=C1)SC2=C3C=C(SC3=CN=C2)C(=O)N
Method in brief: as §1

[8] = compound: CCCS(=O)(=O)Nc1ccc(F)c(C(=O)c2c[nH]c3ncc(Cl)cc23)c1F
Method in brief: as §1

[9] = compound: CCN(CCCOc1ccc2c(Nc3cc(CC(=O)Nc4cccc(F)c4)[nH]n3)ncnc2c1)CCOP(=O)(O)O [barasertib]
Method in brief: as §1

[10] = compound: CC[C@@H]1C(=O)N(C)c2cnc(Nc3ccc(C(=O)N[C@H]4CC[C@H](N5CCN(CC6CC6)CC5)CC4)cc3OC)nc2N1C(C)C [volasertib]
Method in brief: as §1

[11] = compound: CCn1cc(-c2ccnc3[nH]c(-c4cccc(CN(C)C)c4)cc23)c(-c2ccc(NC(=O)N(C)C)cc2)n1
Method in brief: as §1

[12] = compound: CN1CCC(CNc2ccc3ncc(-c4cccc(OC(F)(F)F)c4)n3n2)CC1
Method in brief: as §1

[13] = compound: CN1CCN(CCOc2cc(OC3CCOCC3)c3c(Nc4c(Cl)ccc5c4OCO5)ncnc3c2)CC1 [saracatinib]
Method in brief: as §1

[14] = compound: CN1CCN(c2nc(C3=C(c4c[nH]c5ccccc45)C(=O)NC3=O)c3ccccc3n2)CC1 [sotrastaurin]
Method in brief: as §1

[15] = compound: CC(C)(C)Cn1c(N)nc2ccc(-c3[nH]c(C(C)(C)C)nc3-c3ccc(F)cc3)nc21 [ralimetinib]
Method in brief: as §1

[16] = compound: CC(C)(O)CC(=O)NCCn1ccc2ncnc(Nc3ccc(Oc4cccc(C(F)(F)F)c4)c(Cl)c3)c21
Method in brief: as §1

[17] = compound: CC1=C(C=C(C=C1)NC(=O)C2=CC(=CC=C2)N(C)C)NC(=O)C3=CC=C(C=C3)O
Method in brief: as §1

[18] = compound: CCCS(=O)(=O)Nc1ccc(F)c(C(=O)c2c[nH]c3ncc(-c4ccc(Cl)cc4)cc23)c1F [vemurafenib]
Method in brief: as §1

[19] = compound: CC[C@@H]1C(=O)N(C)c2cnc(Nc3ccc(C(=O)NC4CCN(C)CC4)cc3OC)nc2N1C1CCCC1
Method in brief: as §1

[20] = compound: CCn1c(C(=O)N(C2CC2)C2CC2)cc2c3c(ncn3C)c(Nc3cc(C)n(C)n3)nc21
Method in brief: as §1

Measured: log2 fold change

OSBPL1A (UniProt Q9BXW6)
inactive: [1] 0.019 | [2] -0.002 | [3] 0.116 | [4] 0.152 | [5] -0.069 | [6] 0.012 | [7] -0.028 | [8] 0.028 | [9] 0.007 | [10] 0.019 | [11] -0.095 | [12] 0.05 | [13] 0.013 | [14] 0.038

OCIAD1 (UniProt Q9NX40)
inactive: [1] 0.055 | [2] 0 | [15] 0.005 | [16] -0.026 | [3] -0.008 | [4] 0.027 | [5] 0 | [6] 0.031 | [17] -0.021 | [7] -0.009 | [18] -0.027 | [8] 0.002 | [9] -0.028 | [19] 0.042 | [10] 0.018 | [20] -0.014 | [11] -0.016 | [12] -0.017 | [13] 0.022 | [14] -0.016

NUP35 (UniProt Q8NFH5)
inactive: [1] -0.021 | [2] -0.049 | [15] 0.046 | [16] -0.174 | [4] -0.038 | [6] -0.005 | [17] 0.1 | [7] 0.139 | [18] 0.143 | [8] -0.016 | [9] -0.006 | [19] 0.162 | [10] -0.052 | [20] 0.038 | [11] 0.005 | [12] -0.043 | [14] -0.07

PABPN1 (UniProt Q86U42)
inactive: [1] 0.088 | [2] -0.085 | [15] 0.089 | [16] -0.045 | [4] 0.08 | [5] -0.083 | [6] 0.002 | [17] 0 | [7] 0.047 | [8] -0.01 | [9] -0.01 | [19] 0.097 | [10] 0.092 | [20] -0.057 | [11] -0.084 | [12] 0.085 | [13] -0.035 | [14] -0.022

OPLAH (UniProt O14841)
inactive: [1] -0.008 | [2] -0.007 | [15] -0.002 | [16] 0.034 | [3] -0.022 | [4] 0.016 | [5] -0.019 | [6] -0.037 | [17] -0.001 | [7] 0.011 | [18] -0.014 | [8] 0.006 | [9] 0.006 | [19] -0.005 | [10] -0.043 | [20] 0.039 | [11] -0.014 | [12] 0.005 | [13] -0.021 | [14] 0.005

OSBP (UniProt P22059)
inactive: [1] -0.007 | [2] 0.003 | [15] -0.019 | [16] -0.007 | [3] -0.19 | [4] 0.018 | [5] 0.04 | [6] -0.103 | [17] 0.011 | [7] -0.003 | [18] -0.052 | [8] -0.007 | [9] -0.004 | [19] -0.076 | [10] -0.091 | [20] 0.041 | [11] -0.045 | [12] -0.032 | [13] 0.011 | [14] 0.026

PANK2 (UniProt Q9BZ23)
inactive: [1] -0.056 | [2] 0.001 | [15] -0.069 | [16] -0.047 | [4] -0.073 | [5] -0.126 | [6] -0.046 | [17] -0.002 | [7] 0.023 | [18] 0.093 | [8] -0.036 | [9] -0.047 | [19] 0.011 | [10] -0.086 | [20] 0.002 | [11] -0.167 | [12] -0.057 | [13] 0.068 | [14] 0.027

Two successive entries already listed, for reference:
OPLAH (UniProt O14841)
inactive: [1] -0.008 | [2] -0.007 | [15] -0.002 | [16] 0.034 | [3] -0.022 | [4] 0.016 | [5] -0.019 | [6] -0.037 | [17] -0.001 | [7] 0.011 | [18] -0.014 | [8] 0.006 | [9] 0.006 | [19] -0.005 | [10] -0.043 | [20] 0.039 | [11] -0.014 | [12] 0.005 | [13] -0.021 | [14] 0.005

OSBP (UniProt P22059)
inactive: [1] -0.007 | [2] 0.003 | [15] -0.019 | [16] -0.007 | [3] -0.19 | [4] 0.018 | [5] 0.04 | [6] -0.103 | [17] 0.011 | [7] -0.003 | [18] -0.052 | [8] -0.007 | [9] -0.004 | [19] -0.076 | [10] -0.091 | [20] 0.041 | [11] -0.045 | [12] -0.032 | [13] 0.011 | [14] 0.026

(cont.)

PANK3 (UniProt Q9H999)
inactive: [1] 0.162 | [2] -0.168 | [15] 0.139 | [16] -0.068 | [3] -0.075 | [4] 0.01 | [5] -0.174 | [17] -0.09 | [7] -0.079 | [18] 0.074 | [8] -0.033 | [9] -0.118 | [19] -0.062 | [10] -0.172 | [20] -0.044 | [11] -0.014 | [12] 0.023 | [13] 0.288

NVL (UniProt O15381)
inactive: [1] 0.067 | [2] -0.042 | [15] -0.024 | [16] 0 | [3] -0.005 | [4] -0.028 | [5] 0.014 | [6] -0.042 | [17] -0.013 | [7] 0.034 | [18] -0.032 | [8] 0.028 | [9] 0.089 | [10] 0.005 | [20] 0.055 | [11] -0.025 | [12] 0.052 | [13] -0.009 | [14] 0.006

ORAI1 (UniProt Q96D31)
inactive: [1] -0.067 | [2] -0.029 | [15] -0.086 | [16] -0.043 | [3] -0.059 | [4] 0.056 | [6] -0.001 | [17] -0.005 | [7] 0.082 | [8] -0.16 | [9] 0.187 | [19] 0.003 | [10] -0.05 | [20] -0.094 | [11] -0.109 | [12] 0.045 | [14] -0.006

ORC3 isoform 2 (UniProt Q9UBD5)
inactive: [1] -0.034 | [2] 0.007 | [15] 0.034 | [16] -0.05 | [3] 0.008 | [4] 0.048 | [5] -0.036 | [6] 0.003 | [17] 0.029 | [7] -0.012 | [18] 0.016 | [8] -0.008 | [9] 0.022 | [19] -0.036 | [10] -0.059 | [20] -0.006 | [11] -0.063 | [12] -0.018 | [13] -0.001 | [14] 0.027

PABPC1 (UniProt H0YAR2)
inactive: [1] -0.207 | [2] -0.09 | [15] 0.049 | [16] -0.044 | [3] -0.02 | [4] -0.037 | [6] 0.048 | [17] 0.027 | [7] -0.009 | [8] -0.001 | [9] 0.001 | [10] -0.001 | [20] 0.04 | [11] 0.07 | [12] 0.173 | [14] -0.029

NXPE1 (UniProt F5H0Y6)
inactive: [1] 0.453 | [2] -0.072 | [7] 0.105 | [8] 0.218 | [9] 0.178 | [10] -0.021

OPHN1 (UniProt O60890)
inactive: [1] 0.056 | [2] -0.012 | [15] -0.175 | [16] -0.022 | [5] 0.024 | [17] 0.285 | [7] -0.093 | [8] -0.011 | [9] -0.025 | [19] -0.061 | [10] 0.007 | [20] -0.117 | [11] 0.095 | [12] -0.044 | [13] -0.072
